Assay results as given in the supplement of paper PMC10849652.
This is one part of the list.

Protein sequences, listed by entry. Tags and fused reporters are not part of them. Lines headed by an entry give the natural chain unless they say otherwise; changes in a name come on top.
UniProt Q86SZ2: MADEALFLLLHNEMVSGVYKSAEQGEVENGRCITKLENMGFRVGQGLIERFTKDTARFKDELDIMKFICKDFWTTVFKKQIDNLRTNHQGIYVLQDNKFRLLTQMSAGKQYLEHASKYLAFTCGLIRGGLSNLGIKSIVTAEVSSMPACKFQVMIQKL
UniProt Q5BVD1: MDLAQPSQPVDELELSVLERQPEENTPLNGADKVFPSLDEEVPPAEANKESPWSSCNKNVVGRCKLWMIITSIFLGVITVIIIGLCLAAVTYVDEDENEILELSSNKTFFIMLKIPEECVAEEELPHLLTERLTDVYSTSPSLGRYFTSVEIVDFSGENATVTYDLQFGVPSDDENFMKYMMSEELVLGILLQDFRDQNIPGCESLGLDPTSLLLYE
UniProt Q13630: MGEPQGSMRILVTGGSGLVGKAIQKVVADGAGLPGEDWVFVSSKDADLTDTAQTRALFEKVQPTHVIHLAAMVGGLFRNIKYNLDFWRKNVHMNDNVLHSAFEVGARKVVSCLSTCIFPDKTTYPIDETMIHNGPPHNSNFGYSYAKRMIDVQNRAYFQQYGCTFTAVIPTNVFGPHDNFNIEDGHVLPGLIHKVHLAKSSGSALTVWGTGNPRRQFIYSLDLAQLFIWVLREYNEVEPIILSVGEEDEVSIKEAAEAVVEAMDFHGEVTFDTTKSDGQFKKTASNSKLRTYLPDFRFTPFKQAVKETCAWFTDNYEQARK
UniProt P36406: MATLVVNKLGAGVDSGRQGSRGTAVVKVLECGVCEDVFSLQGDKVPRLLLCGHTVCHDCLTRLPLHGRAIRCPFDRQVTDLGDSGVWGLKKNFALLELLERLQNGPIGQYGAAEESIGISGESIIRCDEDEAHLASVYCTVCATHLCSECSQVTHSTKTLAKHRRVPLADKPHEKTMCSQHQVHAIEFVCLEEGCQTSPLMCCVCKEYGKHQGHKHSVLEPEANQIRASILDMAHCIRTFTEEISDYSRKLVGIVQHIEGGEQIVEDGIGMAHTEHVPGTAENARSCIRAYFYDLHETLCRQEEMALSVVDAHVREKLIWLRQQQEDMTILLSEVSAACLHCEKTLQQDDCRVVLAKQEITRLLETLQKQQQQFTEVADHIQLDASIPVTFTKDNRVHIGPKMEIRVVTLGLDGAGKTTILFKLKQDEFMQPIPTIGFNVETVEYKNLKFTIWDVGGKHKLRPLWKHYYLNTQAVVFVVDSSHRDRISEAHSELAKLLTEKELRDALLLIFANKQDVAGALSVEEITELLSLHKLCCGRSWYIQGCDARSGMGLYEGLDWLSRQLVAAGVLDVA
UniProt Q96F44: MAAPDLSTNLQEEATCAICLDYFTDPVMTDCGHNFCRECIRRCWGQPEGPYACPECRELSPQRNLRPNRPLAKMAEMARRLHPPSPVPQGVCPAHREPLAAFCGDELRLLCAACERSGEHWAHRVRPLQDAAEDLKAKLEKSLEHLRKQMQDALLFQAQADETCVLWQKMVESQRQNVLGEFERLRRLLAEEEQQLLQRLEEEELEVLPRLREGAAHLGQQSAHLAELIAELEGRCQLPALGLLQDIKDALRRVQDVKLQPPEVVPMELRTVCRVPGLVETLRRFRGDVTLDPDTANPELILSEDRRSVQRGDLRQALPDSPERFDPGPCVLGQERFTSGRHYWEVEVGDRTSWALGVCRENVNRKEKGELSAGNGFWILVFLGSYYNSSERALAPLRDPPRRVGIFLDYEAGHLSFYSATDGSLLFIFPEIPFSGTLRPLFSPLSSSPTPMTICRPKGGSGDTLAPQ
UniProt Q8TBZ6: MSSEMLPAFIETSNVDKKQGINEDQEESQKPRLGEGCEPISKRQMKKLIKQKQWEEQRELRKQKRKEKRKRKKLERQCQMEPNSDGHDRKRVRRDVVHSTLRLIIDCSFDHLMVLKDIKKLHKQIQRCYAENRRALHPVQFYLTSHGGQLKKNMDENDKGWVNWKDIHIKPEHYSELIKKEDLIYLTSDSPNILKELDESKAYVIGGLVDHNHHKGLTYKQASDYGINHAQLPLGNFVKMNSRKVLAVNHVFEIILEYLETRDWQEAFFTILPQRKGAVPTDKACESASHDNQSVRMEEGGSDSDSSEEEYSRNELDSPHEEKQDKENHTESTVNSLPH
UniProt A5PLN9: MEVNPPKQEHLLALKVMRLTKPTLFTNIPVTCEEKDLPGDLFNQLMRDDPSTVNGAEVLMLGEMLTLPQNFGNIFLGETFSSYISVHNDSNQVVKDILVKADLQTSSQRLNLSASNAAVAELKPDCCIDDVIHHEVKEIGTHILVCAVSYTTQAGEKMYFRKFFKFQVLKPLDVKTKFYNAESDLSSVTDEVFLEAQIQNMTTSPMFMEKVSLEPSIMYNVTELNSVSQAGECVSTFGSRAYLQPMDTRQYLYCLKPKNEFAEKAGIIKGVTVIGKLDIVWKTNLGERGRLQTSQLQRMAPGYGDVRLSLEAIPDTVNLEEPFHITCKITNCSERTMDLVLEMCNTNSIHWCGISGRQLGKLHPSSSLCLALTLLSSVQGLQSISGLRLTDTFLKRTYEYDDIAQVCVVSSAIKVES
UniProt Q15650: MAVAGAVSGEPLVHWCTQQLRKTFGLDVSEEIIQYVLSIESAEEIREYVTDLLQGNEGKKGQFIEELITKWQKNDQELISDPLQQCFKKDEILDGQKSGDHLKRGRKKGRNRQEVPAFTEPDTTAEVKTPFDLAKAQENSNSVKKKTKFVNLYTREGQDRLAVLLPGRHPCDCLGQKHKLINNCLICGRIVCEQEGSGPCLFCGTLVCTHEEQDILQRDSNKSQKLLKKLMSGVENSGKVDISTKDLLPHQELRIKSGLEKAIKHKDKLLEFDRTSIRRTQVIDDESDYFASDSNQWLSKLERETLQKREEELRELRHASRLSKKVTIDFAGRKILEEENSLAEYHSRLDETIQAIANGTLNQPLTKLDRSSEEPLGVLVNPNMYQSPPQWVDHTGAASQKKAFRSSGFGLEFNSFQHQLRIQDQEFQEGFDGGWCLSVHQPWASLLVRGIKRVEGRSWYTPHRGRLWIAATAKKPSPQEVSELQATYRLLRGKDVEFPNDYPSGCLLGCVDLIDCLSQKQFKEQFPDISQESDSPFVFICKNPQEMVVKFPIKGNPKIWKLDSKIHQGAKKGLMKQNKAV
UniProt Q13114: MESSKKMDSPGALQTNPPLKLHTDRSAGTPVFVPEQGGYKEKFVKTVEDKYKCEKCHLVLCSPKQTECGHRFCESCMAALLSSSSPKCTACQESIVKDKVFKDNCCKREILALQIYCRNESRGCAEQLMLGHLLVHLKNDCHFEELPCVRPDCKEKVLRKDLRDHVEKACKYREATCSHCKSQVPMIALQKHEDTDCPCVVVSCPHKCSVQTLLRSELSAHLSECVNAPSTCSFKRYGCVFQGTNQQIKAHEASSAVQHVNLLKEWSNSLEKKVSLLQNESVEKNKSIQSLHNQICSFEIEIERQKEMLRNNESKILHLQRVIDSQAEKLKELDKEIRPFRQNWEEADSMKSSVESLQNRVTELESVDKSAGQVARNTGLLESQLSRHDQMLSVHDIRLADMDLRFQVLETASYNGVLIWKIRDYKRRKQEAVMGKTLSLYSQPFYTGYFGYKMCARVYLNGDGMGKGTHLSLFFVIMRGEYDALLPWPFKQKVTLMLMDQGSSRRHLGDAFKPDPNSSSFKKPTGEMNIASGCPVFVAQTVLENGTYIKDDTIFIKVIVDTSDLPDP
UniProt Q8NCE0: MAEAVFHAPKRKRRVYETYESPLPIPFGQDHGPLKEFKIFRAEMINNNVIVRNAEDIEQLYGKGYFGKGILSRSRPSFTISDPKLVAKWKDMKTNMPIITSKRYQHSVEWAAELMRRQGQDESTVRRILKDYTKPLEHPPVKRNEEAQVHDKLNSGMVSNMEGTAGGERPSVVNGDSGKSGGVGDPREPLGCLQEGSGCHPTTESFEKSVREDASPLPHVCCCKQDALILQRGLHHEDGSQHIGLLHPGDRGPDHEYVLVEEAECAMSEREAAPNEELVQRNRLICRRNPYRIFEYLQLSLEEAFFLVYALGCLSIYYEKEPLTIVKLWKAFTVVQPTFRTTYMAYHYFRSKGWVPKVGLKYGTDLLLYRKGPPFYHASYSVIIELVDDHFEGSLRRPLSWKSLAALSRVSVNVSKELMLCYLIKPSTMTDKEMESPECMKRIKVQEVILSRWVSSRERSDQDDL
UniProt Q9BRZ2: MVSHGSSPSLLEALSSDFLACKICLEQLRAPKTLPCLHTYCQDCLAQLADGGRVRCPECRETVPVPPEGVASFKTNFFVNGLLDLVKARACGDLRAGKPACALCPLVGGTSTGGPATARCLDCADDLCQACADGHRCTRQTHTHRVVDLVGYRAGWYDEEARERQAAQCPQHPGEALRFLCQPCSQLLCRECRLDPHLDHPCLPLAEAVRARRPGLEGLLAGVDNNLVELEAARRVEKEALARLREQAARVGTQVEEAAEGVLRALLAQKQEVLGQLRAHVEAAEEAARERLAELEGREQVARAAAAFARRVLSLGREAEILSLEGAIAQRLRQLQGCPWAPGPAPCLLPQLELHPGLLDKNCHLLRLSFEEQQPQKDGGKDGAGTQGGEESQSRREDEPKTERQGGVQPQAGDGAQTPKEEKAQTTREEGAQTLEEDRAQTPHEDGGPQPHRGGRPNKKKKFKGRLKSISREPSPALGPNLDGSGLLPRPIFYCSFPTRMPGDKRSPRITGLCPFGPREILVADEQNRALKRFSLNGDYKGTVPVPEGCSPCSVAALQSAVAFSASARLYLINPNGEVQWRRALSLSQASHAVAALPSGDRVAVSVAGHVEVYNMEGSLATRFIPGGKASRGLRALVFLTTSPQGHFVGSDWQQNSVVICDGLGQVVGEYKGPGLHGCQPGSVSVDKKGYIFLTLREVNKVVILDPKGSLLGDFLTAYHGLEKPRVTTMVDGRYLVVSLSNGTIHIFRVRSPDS
UniProt Q9Y5R8, whole entry, looked up: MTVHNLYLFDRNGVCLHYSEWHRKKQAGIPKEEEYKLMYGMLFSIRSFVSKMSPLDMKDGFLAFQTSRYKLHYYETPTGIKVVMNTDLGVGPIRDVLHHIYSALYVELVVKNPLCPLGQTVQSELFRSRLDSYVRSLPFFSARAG
UniProt Q12931: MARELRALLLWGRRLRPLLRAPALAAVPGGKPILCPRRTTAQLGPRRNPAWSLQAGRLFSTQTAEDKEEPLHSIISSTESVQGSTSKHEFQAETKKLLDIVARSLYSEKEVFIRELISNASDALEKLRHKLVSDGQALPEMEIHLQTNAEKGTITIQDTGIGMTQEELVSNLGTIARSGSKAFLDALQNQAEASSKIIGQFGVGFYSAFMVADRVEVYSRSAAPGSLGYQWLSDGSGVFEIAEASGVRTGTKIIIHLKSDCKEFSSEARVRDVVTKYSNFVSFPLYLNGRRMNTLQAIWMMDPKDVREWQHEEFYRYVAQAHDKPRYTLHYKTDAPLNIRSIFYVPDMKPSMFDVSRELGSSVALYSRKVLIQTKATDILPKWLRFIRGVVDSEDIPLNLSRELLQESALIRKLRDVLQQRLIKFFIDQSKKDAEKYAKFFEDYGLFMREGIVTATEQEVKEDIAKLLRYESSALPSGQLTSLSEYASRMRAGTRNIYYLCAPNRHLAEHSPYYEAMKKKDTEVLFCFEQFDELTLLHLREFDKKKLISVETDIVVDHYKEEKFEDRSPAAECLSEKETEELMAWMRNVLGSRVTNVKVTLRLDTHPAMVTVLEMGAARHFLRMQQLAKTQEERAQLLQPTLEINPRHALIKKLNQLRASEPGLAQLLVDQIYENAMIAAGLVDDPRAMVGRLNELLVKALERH
UniProt Q9NUP7: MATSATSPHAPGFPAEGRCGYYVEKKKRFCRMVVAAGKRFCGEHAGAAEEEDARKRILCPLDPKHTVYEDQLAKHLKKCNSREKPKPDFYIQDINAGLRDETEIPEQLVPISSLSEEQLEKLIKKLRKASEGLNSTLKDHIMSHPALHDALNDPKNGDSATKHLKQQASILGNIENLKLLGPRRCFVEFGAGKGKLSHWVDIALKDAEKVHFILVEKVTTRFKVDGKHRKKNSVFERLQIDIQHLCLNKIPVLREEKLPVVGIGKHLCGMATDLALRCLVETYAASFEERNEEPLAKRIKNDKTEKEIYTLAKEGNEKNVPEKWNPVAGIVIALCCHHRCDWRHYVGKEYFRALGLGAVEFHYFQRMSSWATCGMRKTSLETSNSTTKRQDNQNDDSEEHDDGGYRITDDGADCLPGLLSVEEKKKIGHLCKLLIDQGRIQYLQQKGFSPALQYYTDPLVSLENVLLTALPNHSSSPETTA
UniProt Q99816: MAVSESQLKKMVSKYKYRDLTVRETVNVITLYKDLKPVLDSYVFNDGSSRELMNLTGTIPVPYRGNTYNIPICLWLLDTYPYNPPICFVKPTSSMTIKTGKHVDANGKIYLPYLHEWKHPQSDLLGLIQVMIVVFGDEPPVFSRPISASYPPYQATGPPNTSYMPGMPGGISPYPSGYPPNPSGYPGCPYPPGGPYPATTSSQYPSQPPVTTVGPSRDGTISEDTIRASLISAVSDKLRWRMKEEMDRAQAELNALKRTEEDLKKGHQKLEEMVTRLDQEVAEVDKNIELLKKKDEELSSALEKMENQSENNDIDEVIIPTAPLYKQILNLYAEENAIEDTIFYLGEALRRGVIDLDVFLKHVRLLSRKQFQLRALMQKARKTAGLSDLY

Columns and labels:
Test in all cases: log2 fold change, soluble protein after heating vs DMSO (PISA); higher = thermal stabilisation; K562 lysate, 10 uM; active = over 0.2 and 3.5 SD of the protein, either way, in both replicates (recomputed)
[1] = compound: CS(=O)(=O)CCNCc1ccc(-c2ccc3ncnc(Nc4ccc(OCc5cccc(F)c5)c(Cl)c4)c3c2)o1 [lapatinib]
Outline: (§1)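 Dounce homogenisation of K562 pellets in PBS pH 7.4 with 1 mM MgCl2 produced a crude extract, used at 1 mg/mL protein. Exposure to 10 μM compound lasted 30 min, and aliquots were then heated for 3 min across 48°C-58°C, pooled and brought to 0.5% NP-40 at 4°C. The supernatant after 21,000xg for 90 min was quantified by TMTpro 16plex LC-MS/MS with channel sums equalised. Duplicate values are given as log-two fold change in thermal stability relative to solvent controls.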

[2] = compound: CS(=O)(=O)N1CCN(Cc2cc3nc(-c4cccc5[nH]ncc45)nc(N4CCOCC4)c3s2)CC1 [pictilisib]
Outline: as §1

[3] = compound: C[C@@H](Oc1cc(-c2cnn(C3CCNCC3)c2)cnc1N)c1c(Cl)ccc(F)c1Cl [crizotinib]
Outline: as §1

[4] = compound: C[C@H](C1=CC=C(C=C1)C(=O)NC2=C3C=CNC3=NC=C2)N
Outline: as §1

[5] = compound: C[C@H](Nc1ncnc2nc[nH]c12)c1cc2cccc(Cl)c2c(=O)n1-c1ccccc1 [duvelisib]
Outline: as §1

[6] = compound: Cc1cc(Nc2cc(CN3CCOCC3)c3nc(C)c(Cc4ccc(Cl)cc4F)n3n2)n[nH]1 [gandotinib]
Outline: as §1

[7] = compound: Cc1cc(Nc2cc(N3CCN(C)CC3)nc(Sc3ccc(NC(=O)C4CC4)cc3)n2)n[nH]1 [tozasertib]
Outline: as §1

[8] = compound: Cc1ccc(-n2nc(C(C)(C)C)cc2NC(=O)Nc2ccc(OCCN3CCOCC3)c3ccccc23)cc1 [doramapimod]
Outline: as §1

[9] = compound: Cc1ccc(NC(=O)c2ccc(CN3CC[C@H](N(C)C)C3)c(C(F)(F)F)c2)cc1Nc1nccc(-c2cncnc2)n1 [bafetinib]
Outline: as §1

[10] = compound: Cc1cccc(CC(=O)N2CCc3c2ccc(-c2cn(C)c4ncnc(N)c24)c3F)n1
Outline: as §1

| Target | log2 fold change [1] | log2 fold change [2] | log2 fold change [3] | log2 fold change [4] | log2 fold change [5] | log2 fold change [6] | log2 fold change [7] | log2 fold change [8] | log2 fold change [9] | log2 fold change [10] |
| --- | --- | --- | --- | --- | --- | --- | --- | --- | --- | --- |
| TRAPPC2L (UniProt Q9UL33) | inactive: 0.027 | inactive: -0.012 | inactive: -0.025 | inactive: -0.023 | inactive: -0.045 | inactive: 0.003 | inactive: 0.063 | inactive: -0.024 | inactive: -0.012 | inactive: 0.075 |
| TSSC4 (UniProt Q9Y5U2) | inactive: 0.024 | inactive: 0.029 | inactive: -0.067 | inactive: -0.059 | inactive: 0.025 | inactive: 0.084 | inactive: -0.106 | inactive: -0.015 | inactive: -0.049 | inactive: 0.05 |
| TTC1 (UniProt Q99614) | inactive: 0.051 | inactive: 0.007 | inactive: 0.088 | inactive: -0.033 | inactive: 0.014 | inactive: 0.072 | inactive: -0.011 | inactive: -0.004 | inactive: 0.028 | inactive: -0.007 |
| TRAPPC6B (UniProt Q86SZ2) | inactive: 0.008 | inactive: 0.037 | inactive: 0.047 | inactive: -0.028 | inactive: -0.001 | inactive: 0.001 | inactive: -0.006 | inactive: -0.042 | inactive: -0.092 | inactive: 0.074 |
| TTMP isoform 3 (UniProt Q5BVD1) | inactive: -0.1 | inactive: 0.013 | inactive: -0.241 | active: -0.618 | inactive: 0.138 | inactive: 0.384 | inactive: -0.022 | inactive: 0.137 | inactive: -0.197 | inactive: 0.47 |
| TSTA3 (UniProt Q13630) | inactive: 0.001 | inactive: -0.007 | inactive: 0.073 | inactive: -0.004 | inactive: -0.006 | inactive: 0 | inactive: -0.003 | inactive: -0.031 | inactive: -0.051 | inactive: -0.021 |
| TRIM23 (UniProt P36406) | inactive: -0.063 | inactive: -0.12 | inactive: -0.003 | inactive: -0.235 | inactive: 0.134 | active: 0.372 | inactive: 0.026 | inactive: 0.01 | inactive: -0.088 | inactive: 0.297 |
| TRIM11 (UniProt Q96F44) | inactive: 0.013 | inactive: -0.006 | inactive: -0.029 | inactive: -0.006 | inactive: -0.016 | inactive: -0.03 | inactive: -0.006 | inactive: 0.015 | inactive: 0.029 | inactive: -0.003 |
| TSFM (UniProt P43897) | inactive: 0.003 | inactive: -0.007 | inactive: -0.056 | inactive: 0.012 | inactive: 0.025 | inactive: -0.122 | inactive: 0.047 | inactive: 0.06 | inactive: -0.026 | inactive: -0.034 |
| TRMT10A (UniProt Q8TBZ6) | inactive: 0.042 | inactive: 0.083 | inactive: 0.031 | inactive: -0.041 | inactive: 0.001 | inactive: 0.02 | inactive: -0.047 | inactive: 0.001 | inactive: 0.012 | inactive: 0.059 |
| TRAPPC13 isoform 4 (UniProt A5PLN9) | inactive: 0.001 | inactive: -0.057 | inactive: -0.028 | inactive: -0.066 | inactive: 0.004 | inactive: 0.068 | inactive: 0.04 | inactive: 0.061 | inactive: -0.009 | inactive: 0.047 |
| TTL (UniProt Q8NG68) | inactive: -0.015 | inactive: -0.057 | inactive: -0.067 | inactive: 0.096 | active: 0.356 | inactive: -0.033 | inactive: -0.112 | inactive: -0.011 | inactive: -0.091 | inactive: -0.048 |
| TRAPPC9 isoform 2 (UniProt Q96Q05) | inactive: -0.02 | inactive: 0.012 | inactive: -0.084 | inactive: -0.053 | inactive: -0.038 | inactive: -0.037 | inactive: 0.037 | inactive: 0.029 | inactive: -0.026 | inactive: 0.021 |
| TRIP4 (UniProt Q15650) | inactive: 0.004 | inactive: -0.003 | inactive: -0.037 | inactive: -0.031 | inactive: -0.019 | inactive: 0.009 | inactive: 0.044 | inactive: 0.027 | inactive: -0.06 | inactive: 0.079 |
| TRAF3 (UniProt Q13114) | inactive: -0.023 | inactive: 0.056 | inactive: -0.042 | inactive: -0.13 | inactive: -0.002 | inactive: 0.089 | inactive: 0.076 | inactive: -0.058 | inactive: -0.089 | inactive: 0.048 |
| TSEN2 (UniProt Q8NCE0) | inactive: 0.006 | inactive: 0.003 | inactive: -0.085 | inactive: -0.076 | inactive: 0.017 | inactive: 0.032 | inactive: 0.039 | inactive: 0.008 | inactive: -0.024 | inactive: 0.079 |
| TTC7B isoform 2 (UniProt Q86TV6) | inactive: -0.039 | inactive: 0.02 | inactive: 0.014 | inactive: 0.042 | inactive: 0.092 | inactive: -0.012 | inactive: 0.037 | inactive: 0.009 | inactive: -0.051 | inactive: 0 |
| TRIM28 (UniProt Q13263) | inactive: -0.016 | inactive: 0.008 | inactive: 0.011 | inactive: 0.008 | inactive: -0.012 | inactive: -0.006 | inactive: -0.01 | inactive: -0.008 | inactive: 0.003 | inactive: -0.017 |
| TRIM56 (UniProt Q9BRZ2) | inactive: 0.001 | inactive: -0.002 | inactive: -0.002 | inactive: 0.085 | inactive: 0.003 | inactive: -0.071 | inactive: 0 | inactive: 0.023 | inactive: -0.132 | inactive: 0.085 |
| TRMT6 (UniProt Q9UJA5) | inactive: -0.01 | inactive: 0.009 | inactive: 0.004 | inactive: -0.026 | inactive: -0.003 | inactive: 0.035 | inactive: 0.02 | inactive: -0.044 | inactive: -0.014 | inactive: 0.026 |
| TRIM25 (UniProt Q14258) | inactive: 0.009 | inactive: -0.031 | inactive: 0.1 | inactive: 0.031 | inactive: -0.021 | inactive: 0 | inactive: 0.03 | inactive: -0.036 | inactive: -0.012 | inactive: -0.038 |
| TRAPPC1 (UniProt Q9Y5R8) | inactive: 0.03 | inactive: -0.009 | inactive: -0.054 | inactive: 0.01 | inactive: -0.041 | inactive: 0.057 | inactive: -0.054 | inactive: 0.102 | inactive: 0.007 | inactive: 0.019 |
| TRIP12 isoform 2 (UniProt Q14669) | inactive: -0.109 | inactive: 0.016 | inactive: -0.029 | inactive: -0.012 | inactive: 0.05 | inactive: -0.042 | inactive: 0.024 | inactive: -0.006 | inactive: -0.06 | inactive: 0.06 |
| TRAP1 (UniProt Q12931) | inactive: -0.024 | inactive: -0.009 | inactive: 0.041 | inactive: 0.006 | inactive: -0.009 | inactive: -0.028 | inactive: 0.044 | inactive: -0.035 | inactive: -0.014 | inactive: -0.022 |
| TRMT13 (UniProt Q9NUP7) | inactive: -0.015 | inactive: -0.018 | inactive: -0.011 | inactive: 0.022 | inactive: 0.041 | inactive: -0.058 | inactive: -0.041 | inactive: 0.072 | inactive: -0.004 | inactive: 0.119 |
| TRIP13 (UniProt Q15645) | inactive: -0.015 | inactive: 0.014 | inactive: -0.028 | inactive: 0.039 | inactive: -0.01 | inactive: -0.187 | inactive: 0.005 | inactive: 0.026 | inactive: -0.029 | inactive: -0.045 |
| TSG101 (UniProt Q99816) | inactive: 0.003 | inactive: -0.011 | inactive: 0.021 | inactive: -0.195 | inactive: -0.032 | inactive: 0.068 | inactive: 0.002 | inactive: 0.007 | inactive: -0.019 | inactive: 0.115 |

A run of entries from the list above, as a working copy:

| Target | log2 fold change [1] | log2 fold change [2] | log2 fold change [3] | log2 fold change [4] | log2 fold change [5] | log2 fold change [6] | log2 fold change [7] | log2 fold change [8] | log2 fold change [9] | log2 fold change [10] |
| --- | --- | --- | --- | --- | --- | --- | --- | --- | --- | --- |
| TTL (UniProt Q8NG68) | inactive: -0.015 | inactive: -0.057 | inactive: -0.067 | inactive: 0.096 | active: 0.356 | inactive: -0.033 | inactive: -0.112 | inactive: -0.011 | inactive: -0.091 | inactive: -0.048 |
| TRAPPC9 isoform 2 (UniProt Q96Q05) | inactive: -0.02 | inactive: 0.012 | inactive: -0.084 | inactive: -0.053 | inactive: -0.038 | inactive: -0.037 | inactive: 0.037 | inactive: 0.029 | inactive: -0.026 | inactive: 0.021 |
